Results on 1 molecule are retold here after US20250250361A1, “ANTI-PLA2G10 ANTIBODIES AND METHODS OF USE” (Yale University, priority 2022, published 2025).

Results are given in words; binding and its absence hold for the method and conditions named. Some results given as binding are weak or reduced against the parent protein; the word gives no strength.

The target of experiment [1] is T1, mouse PLA2G10 (NP285) (mouse) (UniProt Q9QXX3).
T1 sequence (looked up): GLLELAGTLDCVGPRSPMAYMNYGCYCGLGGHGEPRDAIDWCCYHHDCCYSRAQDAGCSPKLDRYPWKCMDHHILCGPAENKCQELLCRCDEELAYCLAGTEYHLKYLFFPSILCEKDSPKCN
The experiment in a line: one-way ELISA, plates coated with mouse PLA2G10 (NP285). (ELISA stands for enzyme-linked immunosorbent assay.)

In experiment [2] the target is T1, mouse PLA2G10 (NP285) (mouse). The experiment in a line: one-way ELISA (FIG. 1B).

B1: anti-PLA2G10 antibody 1C11 (mouse IgG2a) (antibody, V domains shown)
VH: QVTLKESGPGILHPSQTLSLTCSFSGFSLNTFGLGVGWVRQPSGKGQEWLAHIWWDDDRYYNPPLKSRLTISKDPSKNQVFLTIPNVNTANTATYYCTQILPHWVAYWGQGTTLTVSS
VL: DIQMNQSPSSLSASLGDTITISCHASQNINVWLSWYQQKPGNIPKLLIYKASNLHTGVPSRFSGSGSGTGFTFTISSLQPEDIATYFCQQGQSYPFTFGGGTKLELK
notes: also called 1C11 antibody; anti-PLA2G10 mAb IC11
Take B1: the binding result in experiment [1] and in experiment [2] was “binds” throughout.
